# The list does not hold the whole screen: it gathers some chemical classes. Other doses and runs of a compound may be missing. T/C gives the treated animals as a percentage of the vehicle group. Schedules are NCI's codes, read here as Q, the interval in days (D) or hours (H), X, the number of doses. Some entries were tested several times; the results are listed from low to high. Some T/C values carry the count of animals alive at the toxicity check; without a count or a note in brackets, all were alive then. Some doses have a count of surviving animals in place of a T/C: the source holds a T/C of zero for them, seemingly a mark for toxic or unscored doses. Some survivor counts are full or nearly so, which does not show that the dose was tolerated: survival well below the control is almost never listed, so the zero probably covers shortened survival too. Survivors were counted at the toxicity check, usually on the fifth day, unless a day is given; later deaths do not show. Where survival is the endpoint, this PubChem deposit counts one and a half times the control or more as active, and values a quarter to a half above the control carry no call in these data; other NCI protocols may use other cut-offs. Signs of the kind (2×) give the number of equal values in this list.
# System: BDF1 mice, s.c. Lewis lung carcinoma, T/C %
# Assay: NCI In Vivo Anticancer Drug Screen. Data for tumor model Lewis Lung Carcinoma (subcutaneous) in B6D2F1 (BDF1) mice
# Description: The antitumor activity of compounds was measured in mice bearing transplantable tumors. Survival or tumor size were measured and the results are expressed as the measurement made in the treated group (T) divided by the measurement made in the vehicle treated control group (C). The tumor model used in this assay is Lewis Lung Carcinoma (subcutaneous) in B6D2F1 (BDF1) mice
# [1] = T/C endpoint: median survival time, dose: 105.0 mg/kg/injection, schedule: Q01DX015 (ip), vehicle: other, higher T/C = longer survival
# [2] = T/C endpoint: median survival time, dose: 200.0 mg/kg/injection, schedule: Q01DX009 (ip), vehicle: saline with Tween-80, higher T/C = longer survival
# [3] = T/C endpoint: median survival time, dose: 400.0 mg/kg/injection, schedule: Q08DX002 (ip), vehicle: saline with Tween-80, higher T/C = longer survival
# [4] = T/C endpoint: median survival time, dose: 800.0 mg/kg/injection, schedule: Q08DX002 (ip), vehicle: saline with Tween-80, higher T/C = longer survival
structure (smiles),measurement,setting,value
NC(=O)c1[nH]cnc1/N=N\N(CCCl)CCCl,T/C,"T/C endpoint: mean tumor weight, dose: 18.5 mg/kg/injection, schedule: Q01DX011 (ip), vehicle: other, evaluated on day 12, higher T/C = larger tumour",114 % of control [9 of 10 alive]
same,T/C,"T/C endpoint: mean tumor weight, dose: 37.0 mg/kg/injection, schedule: Q01DX011 (ip), vehicle: other, evaluated on day 12, higher T/C = larger tumour",69 % of control
same,T/C,"T/C endpoint: mean tumor weight, dose: 56.0 mg/kg/injection, schedule: Q01DX011 (ip), vehicle: other, evaluated on day 12, higher T/C = larger tumour",56 % of control [9 of 10 alive]
same,T/C,"T/C endpoint: median survival time, dose: 16.0 mg/kg/injection, schedule: Q01DX009 (ip), vehicle: other, higher T/C = longer survival",125 % of control
same,T/C,"T/C endpoint: median survival time, dose: 25.0 mg/kg/injection, schedule: Q01DX009 (ip), vehicle: Klucel (hydroxypropylcellulose) (HPC), higher T/C = longer survival",108 % of control
same,T/C,"T/C endpoint: median survival time, dose: 25.0 mg/kg/injection, schedule: Q01DX009 (ip), vehicle: saline with Tween-80, higher T/C = longer survival",101 and 110 % of control
same,T/C,"T/C endpoint: median survival time, dose: 32.0 mg/kg/injection, schedule: Q01DX009 (ip), vehicle: other, higher T/C = longer survival",91 % of control
same,T/C,"T/C endpoint: median survival time, dose: 47.0 mg/kg/injection, schedule: Q01DX015 (ip), vehicle: other, evaluated on day 41, higher T/C = longer survival",156 % of control
same,T/C,"T/C endpoint: median survival time, dose: 47.0 mg/kg/injection, schedule: Q01DX015 (ip), vehicle: other, evaluated on day 44, higher T/C = longer survival",104 % of control
same,T/C,"T/C endpoint: median survival time, dose: 50.0 mg/kg/injection, schedule: Q01DX009 (ip), vehicle: Klucel (hydroxypropylcellulose) (HPC), higher T/C = longer survival",105 % of control
same,T/C,"T/C endpoint: median survival time, dose: 50.0 mg/kg/injection, schedule: Q01DX009 (ip), vehicle: saline with Tween-80, higher T/C = longer survival",125 and 144 % of control
same,T/C,"T/C endpoint: median survival time, dose: 64.0 mg/kg/injection, schedule: Q01DX009 (ip), vehicle: other, higher T/C = longer survival",111 % of control
same,T/C,"T/C endpoint: median survival time, dose: 70.0 mg/kg/injection, schedule: Q01DX015 (ip), vehicle: other, evaluated on day 41, higher T/C = longer survival",136 % of control
same,T/C,"T/C endpoint: median survival time, dose: 70.0 mg/kg/injection, schedule: Q01DX015 (ip), vehicle: other, evaluated on day 44, higher T/C = longer survival",100 % of control
same,T/C,"T/C endpoint: median survival time, dose: 100.0 mg/kg/injection, schedule: Q01DX009 (ip), vehicle: Klucel (hydroxypropylcellulose) (HPC), higher T/C = longer survival",110 % of control
same,T/C,"T/C endpoint: median survival time, dose: 100.0 mg/kg/injection, schedule: Q01DX009 (ip), vehicle: saline with Tween-80, higher T/C = longer survival",92 and 101 % of control
same,T/C,"T/C endpoint: median survival time, dose: 100.0 mg/kg/injection, schedule: Q08DX002 (ip), vehicle: Klucel (hydroxypropylcellulose) (HPC), higher T/C = longer survival",93 % of control
same,T/C,"T/C endpoint: median survival time, dose: 100.0 mg/kg/injection, schedule: Q08DX002 (ip), vehicle: saline with Tween-80, higher T/C = longer survival",110 % of control (2×)
same,T/C,[1],115 % of control
same,survivor count,[1],10 of 10
same,survivor count,"T/C endpoint: median survival time, dose: 128.0 mg/kg/injection, schedule: Q01DX009 (ip), vehicle: other, higher T/C = longer survival",10 of 10
same,T/C,"T/C endpoint: median survival time, dose: 130.0 mg/kg/injection, schedule: Q11DX002 (ip), vehicle: other, higher T/C = longer survival",123 % of control
same,T/C,"T/C endpoint: median survival time, dose: 180.0 mg/kg/injection, schedule: Q01DX001 (ip), vehicle: other, evaluated on day 41, higher T/C = longer survival",120 % of control
same,T/C,"T/C endpoint: median survival time, dose: 180.0 mg/kg/injection, schedule: Q01DX001 (ip), vehicle: other, evaluated on day 44, higher T/C = longer survival",92 % of control
same,survivor count,"T/C endpoint: median survival time, dose: 200.0 mg/kg/injection, schedule: Q01DX009 (ip), vehicle: Klucel (hydroxypropylcellulose) (HPC), higher T/C = longer survival",10 of 10
same,T/C,[2],110 % of control
same,survivor count,[2],10 of 10
same,T/C,"T/C endpoint: median survival time, dose: 200.0 mg/kg/injection, schedule: Q08DX002 (ip), vehicle: Klucel (hydroxypropylcellulose) (HPC), higher T/C = longer survival",108 % of control
same,T/C,"T/C endpoint: median survival time, dose: 200.0 mg/kg/injection, schedule: Q08DX002 (ip), vehicle: saline with Tween-80, higher T/C = longer survival",125 and 130 % of control
same,T/C,"T/C endpoint: median survival time, dose: 200.0 mg/kg/injection, schedule: Q11DX002 (ip), vehicle: other, higher T/C = longer survival",69 % of control
same,survivor count,"T/C endpoint: median survival time, dose: 256.0 mg/kg/injection, schedule: Q01DX009 (ip), vehicle: other, higher T/C = longer survival",10 of 10
same,T/C,"T/C endpoint: median survival time, dose: 270.0 mg/kg/injection, schedule: Q01DX001 (ip), vehicle: other, evaluated on day 41, higher T/C = longer survival",103 % of control
same,T/C,"T/C endpoint: median survival time, dose: 270.0 mg/kg/injection, schedule: Q01DX001 (ip), vehicle: other, evaluated on day 44, higher T/C = longer survival",102 % of control
same,T/C,"T/C endpoint: median survival time, dose: 300.0 mg/kg/injection, schedule: Q01DX001 (ip), vehicle: other, higher T/C = longer survival",121 % of control
same,T/C,"T/C endpoint: median survival time, dose: 300.0 mg/kg/injection, schedule: Q11DX002 (ip), vehicle: other, higher T/C = longer survival",112 % of control
same,T/C,"T/C endpoint: median survival time, dose: 350.0 mg/kg/injection, schedule: Q01DX001 (ip), vehicle: other, higher T/C = longer survival",111 % of control
same,T/C,"T/C endpoint: median survival time, dose: 400.0 mg/kg/injection, schedule: Q01DX001 (ip), vehicle: other, higher T/C = longer survival",140 % of control
same,survivor count,"T/C endpoint: median survival time, dose: 400.0 mg/kg/injection, schedule: Q01DX009 (ip), vehicle: Klucel (hydroxypropylcellulose) (HPC), higher T/C = longer survival",10 of 10
same,survivor count,"T/C endpoint: median survival time, dose: 400.0 mg/kg/injection, schedule: Q01DX009 (ip), vehicle: saline with Tween-80, higher T/C = longer survival",10 of 10
same,survivor count,"T/C endpoint: median survival time, dose: 400.0 mg/kg/injection, schedule: Q08DX002 (ip), vehicle: Klucel (hydroxypropylcellulose) (HPC), higher T/C = longer survival",10 of 10
same,T/C,[3],142 % of control
same,survivor count,[3],10 of 10
same,T/C,"T/C endpoint: median survival time, dose: 405.0 mg/kg/injection, schedule: Q01DX001 (ip), vehicle: other, evaluated on day 41, higher T/C = longer survival",134 % of control
same,T/C,"T/C endpoint: median survival time, dose: 405.0 mg/kg/injection, schedule: Q01DX001 (ip), vehicle: other, evaluated on day 44, higher T/C = longer survival",154 % of control
same,survivor count,"T/C endpoint: median survival time, dose: 800.0 mg/kg/injection, schedule: Q08DX002 (ip), vehicle: Klucel (hydroxypropylcellulose) (HPC), higher T/C = longer survival",10 of 10
same,T/C,[4],155 % of control
same,survivor count,[4],10 of 10
same,T/C,"T/C endpoint: median tumor weight (est.), dose: 21.7 mg/kg/injection, schedule: Q01DX009 (ip), vehicle: other, evaluated on day 14, higher T/C = larger tumour",70 % of control
same,T/C,"T/C endpoint: median tumor weight (est.), dose: 22.0 mg/kg/injection, schedule: Q01DX009 (ip), vehicle: other, evaluated on day 14, higher T/C = larger tumour",53 and 54 % of control
same,T/C,"T/C endpoint: median tumor weight (est.), dose: 25.0 mg/kg/injection, schedule: Q01DX009 (ip), vehicle: Klucel (hydroxypropylcellulose) (HPC), evaluated on day 18, higher T/C = larger tumour",79 % of control
same,T/C,"T/C endpoint: median tumor weight (est.), dose: 43.5 mg/kg/injection, schedule: Q01DX009 (ip), vehicle: other, evaluated on day 14, higher T/C = larger tumour",50 % of control
same,T/C,"T/C endpoint: median tumor weight (est.), dose: 44.0 mg/kg/injection, schedule: Q01DX009 (ip), vehicle: other, evaluated on day 14, higher T/C = larger tumour",30 and 60 % of control
same,T/C,"T/C endpoint: median tumor weight (est.), dose: 50.0 mg/kg/injection, schedule: Q01DX009 (ip), vehicle: Klucel (hydroxypropylcellulose) (HPC), evaluated on day 18, higher T/C = larger tumour",50 % of control
same,T/C,"T/C endpoint: median tumor weight (est.), dose: 87.0 mg/kg/injection, schedule: Q01DX009 (ip), vehicle: other, evaluated on day 14, higher T/C = larger tumour",2 [9 of 10 alive on day 14] and 45 % of control
same,T/C,"T/C endpoint: median tumor weight (est.), dose: 100.0 mg/kg/injection, schedule: Q01DX009 (ip), vehicle: Klucel (hydroxypropylcellulose) (HPC), evaluated on day 18, higher T/C = larger tumour",15 % of control
same,T/C,"T/C endpoint: median tumor weight (est.), dose: 100.0 mg/kg/injection, schedule: Q08DX002 (ip), vehicle: Klucel (hydroxypropylcellulose) (HPC), evaluated on day 18, higher T/C = larger tumour",51 % of control
same,T/C,"T/C endpoint: median tumor weight (est.), dose: 200.0 mg/kg/injection, schedule: Q01DX009 (ip), vehicle: Klucel (hydroxypropylcellulose) (HPC), evaluated on day 18, higher T/C = larger tumour",2 % of control [7 of 10 alive]
same,T/C,"T/C endpoint: median tumor weight (est.), dose: 200.0 mg/kg/injection, schedule: Q08DX002 (ip), vehicle: Klucel (hydroxypropylcellulose) (HPC), evaluated on day 18, higher T/C = larger tumour",46 % of control [9 of 10 alive]
same,T/C,"T/C endpoint: median tumor weight (est.), dose: 400.0 mg/kg/injection, schedule: Q08DX002 (ip), vehicle: Klucel (hydroxypropylcellulose) (HPC), evaluated on day 18, higher T/C = larger tumour",4 % of control [8 of 10 alive]

# — PubChem BioAssay AID270 (DTP/NCI, 2004)
